Assay results reported in PubChem BioAssay AID212 (DTP/NCI, 2004).
The list shows only some results of the screen, not a fair sample: it is rich in T/C values a quarter to a half above the control, in often repeated tests (any T/C) and in doses without a T/C. Further doses and runs are listed elsewhere. T/C: endpoint of the treated group in % of that of the vehicle group. Schedule codes are those of the source, read here as Q, the interval in days (D) or hours (H), X, the number of doses. Some T/C values carry the count of animals alive at the toxicity check (mostly the fifth day); without a count, all were alive then. Some entries were tested several times; the values are given in rising order. Signs of the kind (2×) stand for listed records that agree. Some doses have a count of surviving animals in place of a T/C: the source files T/C as zero there, which appears to mark a toxic dose or a test without result, not a measured value. Survivors were counted at the toxicity check, usually on the fifth day, unless a day is given; later deaths do not show.

System: BDF1 mice, colon carcinoma 38 sc, T/C %
Experiment: NCI In Vivo Anticancer Drug Screen. Data for tumor model Colon Carcinoma 38 (subcutaneous) in B6D2F1 (BDF1) mice
Settings: T/C endpoint: median tumor weight (est.), higher T/C = larger tumour; for T/C: evaluated on day 20
Summary of the method: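 Ratio of survival or tumor size, compound-treated animals relative to vehicle controls, in tumor-bearing mice.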

[1] = dose: 200.0 mg/kg/injection, schedule: Q07DX002 (ip), vehicle: Klucel (hydroxypropylcellulose) (HPC)
[2] = dose: 12.5 mg/kg/injection, schedule: Q07DX002 (ip), vehicle: saline
[3] = dose: 100.0 mg/kg/injection, schedule: Q07DX002 (ip), vehicle: saline
[4] = dose: 100.0 mg/kg/injection, schedule: Q07DX002 (ip), vehicle: saline with Tween-80
[5] = dose: 200.0 mg/kg/injection, schedule: Q07DX002 (ip), vehicle: saline with Tween-80
[6] = dose: 25.0 mg/kg/injection, schedule: Q07DX002 (ip), vehicle: saline
[7] = dose: 50.0 mg/kg/injection, schedule: Q07DX002 (ip), vehicle: saline
[8] = dose: 100.0 mg/kg/injection, schedule: Q07DX002 (ip), vehicle: suspension in saline

## C=C(C)C(=O)O[C@H]1CC2=C[C@@H](C[C@@]3(C)O[C@@H]3[C@H]3OC(=O)C(=C)[C@@H]31)OC2=O
dose: 12.5 mg/kg/injection, schedule: Q07DX002 (ip), vehicle: Klucel (hydroxypropylcellulose) (HPC)
  T/C: 128 % of control
dose: 100.0 mg/kg/injection, schedule: Q07DX002 (ip), vehicle: Klucel (hydroxypropylcellulose) (HPC)
  survivor count: 4 of 10 on day 20
[1]
  survivor count: 0 of 10 on day 20

## C=CC(=O)NCNC(=O)C=C
[2]
  T/C: 139 % of control
[3]
  T/C: 140 % of control

## Nc1ccc(C(=O)Nc2ccccc2N)cc1
dose: 50.0 mg/kg/injection, schedule: Q07DX002 (ip), vehicle: saline with Tween-80
  T/C: 135 % of control [9 of 10 alive on day 20]
dose: 100.0 mg/kg/injection, schedule: Q01DX007 (oral), vehicle: saline with Tween-80
  T/C: 132 % of control [9 of 10 alive on day 20]
dose: 200.0 mg/kg/injection, schedule: Q01DX007 (ip), vehicle: saline with Tween-80
  survivor count: 4 of 10 on day 20
dose: 400.0 mg/kg/injection, schedule: Q01DX007 (ip), vehicle: saline with Tween-80
  survivor count: 3 of 10 on day 20

## CC12C(=O)C=CCC1=CCC1C2CCC2(O)C(=O)OC3(C)C4CC5(C)C(COC16OC23C5C6=O)C(=O)O4 (stereo not drawn)
[1]
  T/C: 128 % of control
dose: 800.0 mg/kg/injection, schedule: Q07DX002 (ip), vehicle: Klucel (hydroxypropylcellulose) (HPC)
  survivor count: 2 of 10 on day 20

## O=S1(=O)C=C(c2ccccc2)C(c2ccccc2)=C1
[4]
  survivor count: 5 of 10 on day 20
[5]
  survivor count: 0 of 10 on day 20

## O=c1n(CC2CO2)c(=O)n(CC2CO2)c(=O)n1CC1CO1 (stereo not drawn)
dose: 3.12 mg/kg/injection, schedule: Q07DX002 (ip), vehicle: saline
  T/C: 58, 62 [9 of 10 alive on day 20], 91, 93 [9 of 10 alive on day 20], 100, 101 % of control
dose: 6.25 mg/kg/injection, schedule: Q07DX002 (ip), vehicle: saline
  T/C: 62, 63, 64, 73, 93 [9 of 10 alive on day 20], 95 % of control
[2]
  T/C: 48, 52, 61, 62, 86, 94 % of control
[6]
  T/C: 32, 43, 53, 54, 60, 70 [9 of 10 alive on day 20], 104 % of control
[7]
  T/C: 20, 30 (2×), 52, 73, 93 % of control
  survivor count: 6 of 10 on day 20
[3]
  survivor count: 0 of 10 on day 20, 1 of 10 on day 20, 3 of 10 on day 20, 5 of 10 on day 20
[8]
  survivor count: 1 of 10 on day 20 and 6 of 10 on day 20
dose: 100.0 mg/kg/injection, schedule: Q07DX003 (ip), vehicle: saline
  survivor count: 6 of 10 on day 20
[5]
  survivor count: 0 of 10 on day 20 and 2 of 10 on day 20
dose: 200.0 mg/kg/injection, schedule: Q07DX002 (ip), vehicle: suspension in saline
  survivor count: 0 of 10 on day 20 and 3 of 10 on day 20
dose: 400.0 mg/kg/injection, schedule: Q07DX002 (ip), vehicle: saline with Tween-80
  survivor count: 0 of 10 on day 20 (2×)
dose: 400.0 mg/kg/injection, schedule: Q07DX002 (ip), vehicle: suspension in saline
  survivor count: 0 of 10 on day 20 (2×)

## Nc1ccc2ccc(NS(=O)(=O)N3CCCCC3)cc2c1
dose: 800.0 mg/kg/injection, schedule: Q07DX002 (ip), vehicle: saline with Tween-80
  survivor count: 6 of 10 on day 20

## Cc1c2c(ccc3ccccc32)c[n+]2ccccc12
dose: 3.12 mg/kg/injection, schedule: Q07DX002 (ip), vehicle: suspension in saline
  T/C: 126 % of control
dose: 6.25 mg/kg/injection, schedule: Q07DX002 (ip), vehicle: suspension in saline
  T/C: 138 % of control
[2]
  T/C: 136 % of control
[7]
  survivor count: 0 of 10 on day 20
dose: 50.0 mg/kg/injection, schedule: Q07DX002 (ip), vehicle: suspension in saline
  survivor count: 0 of 10 on day 20
[3]
  survivor count: 0 of 10 on day 20
[8]
  survivor count: 0 of 10 on day 20

## COc1cc2c3c(cccc3c1)C(=O)N(CCN(C)C)C2=O
dose: 80.0 mg/kg/injection, schedule: Q07DX002 (ip), vehicle: saline with Tween-80
  T/C: 125 % of control
dose: 160.0 mg/kg/injection, schedule: Q07DX002 (ip), vehicle: saline with Tween-80
  survivor count: 1 of 10 on day 20
dose: 320.0 mg/kg/injection, schedule: Q07DX002 (ip), vehicle: saline with Tween-80
  survivor count: 0 of 10 on day 20 and 2 of 10 on day 20

## Cc1ncc([N+](=O)[O-])n1CCSC(N)=O
dose: 50.0 mg/kg/injection, schedule: Q07DX003 (ip), vehicle: saline with Tween-80
  T/C: 131 % of control
dose: 200.0 mg/kg/injection, schedule: Q07DX003 (ip), vehicle: saline with Tween-80
  T/C: 128 % of control
dose: 400.0 mg/kg/injection, schedule: Q07DX003 (ip), vehicle: saline with Tween-80
  T/C: 133 % of control [9 of 10 alive]

## O=C1NC2(CCCCC2)C(=O)N1CCN(CCCl)CCCl
dose: 64.0 mg/kg/injection, schedule: Q07DX003 (ip), vehicle: Klucel (hydroxypropylcellulose) (HPC)
  survivor count: 2 of 10
dose: 128.0 mg/kg/injection, schedule: Q07DX003 (ip), vehicle: Klucel (hydroxypropylcellulose) (HPC)
  survivor count: 1 of 10

## C/C=C/C=C/c1cc2cc3c(c(O)c2c(=O)[nH]1)C1(CC3)C(O)=c2c(=O)c3c(=O)cc(OC)c(=O)c=3c(=O)c2=C1O (stereo not drawn)
dose: 0.25 mg/kg/injection, schedule: Q07DX002 (ip), vehicle: DMSO
  T/C: 125 % of control
dose: 2.0 mg/kg/injection, schedule: Q07DX002 (ip), vehicle: DMSO
  survivor count: 0 of 10 on day 20
dose: 2.25 mg/kg/injection, schedule: Q07DX002 (ip), vehicle: DMSO
  survivor count: 1 of 10 on day 20 and 2 of 10 on day 20
dose: 4.5 mg/kg/injection, schedule: Q07DX002 (ip), vehicle: DMSO
  survivor count: 0 of 10 on day 20
dose: 9.0 mg/kg/injection, schedule: Q07DX002 (ip), vehicle: DMSO
  survivor count: 0 of 10 on day 20
dose: 18.0 mg/kg/injection, schedule: Q07DX002 (ip), vehicle: DMSO
  survivor count: 0 of 10 on day 20
dose: 36.0 mg/kg/injection, schedule: Q07DX002 (ip), vehicle: DMSO
  survivor count: 0 of 10 on day 20

## CC(=O)OCc1cc(=O)n(C)c2c3c4c(cc12)c(C)cc(=O)n4CO3
dose: 25.0 mg/kg/injection, schedule: Q07DX003 (ip), vehicle: Klucel (hydroxypropylcellulose) (HPC)
  T/C: 138 % of control
dose: 50.0 mg/kg/injection, schedule: Q07DX003 (ip), vehicle: Klucel (hydroxypropylcellulose) (HPC)
  T/C: 134 % of control

## CCCCCCC(=O)/C=C/c1cccc(OCOCC)c1
dose: 25.0 mg/kg/injection, schedule: Q07DX002 (ip), vehicle: saline with Tween-80
  T/C: 138 % of control [9 of 10 alive]

## C=C(C)C(=NC(C)(C)C)Nc1ccccc1
[4]
  T/C: 136 % of control [9 of 10 alive on day 20]

## CC(=O)Oc1c(C)[nH]ccc1=O
[2]
  T/C: 133 % of control
[6]
  T/C: 131 % of control
dose: 200.0 mg/kg/injection, schedule: Q07DX002 (ip), vehicle: saline
  T/C: 130 % of control

## CCOC(=O)c1cn(C)c2c1C(O)=C(C(=O)OC)CC(=O)N2
[5]
  T/C: 131 % of control

## O=C1C=C[C@H](O)[C@@]2(CO)O[C@@H]12
dose: 20.0 mg/kg/injection, schedule: Q07DX002 (ip), vehicle: saline with Tween-80
  survivor count: 5 of 10 on day 20
